No constants are given. Whether binding was seen depends on the method and setting. In cells and extracts the contact can be indirect. Some binding calls cover weakened binding; strength is not graded here.

By UniProt entry, the sequences of proteins in these tests, tags left out.
UniProt P29469: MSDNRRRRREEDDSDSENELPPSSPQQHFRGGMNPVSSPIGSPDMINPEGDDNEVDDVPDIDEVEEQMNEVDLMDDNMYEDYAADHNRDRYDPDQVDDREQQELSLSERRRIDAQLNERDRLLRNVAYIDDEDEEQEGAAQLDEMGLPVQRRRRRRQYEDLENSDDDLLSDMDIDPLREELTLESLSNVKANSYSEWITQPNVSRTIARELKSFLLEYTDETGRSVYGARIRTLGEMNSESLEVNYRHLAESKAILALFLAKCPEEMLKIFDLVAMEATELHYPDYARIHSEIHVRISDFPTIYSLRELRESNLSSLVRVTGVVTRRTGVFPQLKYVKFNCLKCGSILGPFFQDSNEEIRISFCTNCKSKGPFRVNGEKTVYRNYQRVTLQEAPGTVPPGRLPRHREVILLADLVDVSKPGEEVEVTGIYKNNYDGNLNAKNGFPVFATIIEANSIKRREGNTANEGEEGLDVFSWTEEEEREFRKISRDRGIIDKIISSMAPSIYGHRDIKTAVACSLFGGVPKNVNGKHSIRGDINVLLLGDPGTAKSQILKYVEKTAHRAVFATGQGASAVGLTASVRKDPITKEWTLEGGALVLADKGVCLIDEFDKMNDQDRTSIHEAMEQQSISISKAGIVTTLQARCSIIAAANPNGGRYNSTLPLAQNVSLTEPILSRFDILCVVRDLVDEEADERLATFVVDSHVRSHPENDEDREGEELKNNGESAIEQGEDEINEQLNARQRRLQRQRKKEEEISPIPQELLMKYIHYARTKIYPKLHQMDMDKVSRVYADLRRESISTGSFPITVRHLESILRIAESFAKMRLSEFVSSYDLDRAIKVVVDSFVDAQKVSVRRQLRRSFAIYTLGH

The test concerns the target actin (yeast, from total yeast cell extract) (S. cerevisiae (endogenous in yeast cell extract)) (UniProt P60010). The test is described as follows: pull-down.

In the case of Mcm2 (from UniProt P29469 1-868), the binding result is “no binding”.

B1: Apn1 (enzyme, UniProt P22936 1-367)
chain: MPSTPSFVRSAVSKYKFGAHMSGAGGISNSVTNAFNTGCNSFAMFLKSPRKWVSPQYTQEEIDKFKKNCATYNYNPLTDVLPHGQYFINLANPDREKAEKSYESFMDDLNRCEQLGIGLYNLHPGSTLKGDHQLQLKQLASYLNKAIKETKFVKIVLENMAGTGNLVGSSLVDLKEVIGMIEDKSRIGVCIDTCHTFAAGYDISTTETFNNFWKEFNDVIGFKYLSAVHLNDSKAPLGANRDLHERLGQGYLGIDVFRMIAHSEYLQGIPIVLETPYENDEGYGNEIKLMEWLESKSESELLEDKEYKEKNDTLQKLGAKSRKEQLDKFEVKQKKRAGGTKRKKATAEPSDNDILSQMTKKRKTKKE
Take B1: the binding result is given as “binds”.

These data come from publication doi:10.1101/2020.11.15.383513.
